The other results are listed elsewhere or left out. Repeats are few or missing, and single values can be far off.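 Cells were imaged in 1,536-well plates, and nuclei stained with an antibody against cleaved PARP were counted against all DNA-stained nuclei to give the apoptosis fraction. Screening doses were chosen to leave most cells alive, and resting and induced cleaved-PARP levels differ strongly between cell lines.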
Legend:
Assay in all cases: cleaved PARP positive nuclei fraction relative to DMSO control; melanoma cells; higher = more apoptosis
Conditions in all cases: library dose: low library concentration; 72 h
[1] = system: 501Mel
[2] = system: A101D
[3] = system: A2058
[4] = system: A375
[5] = system: C32
[6] = system: CBRC008 (line from a melanoma biopsy)
[7] = system: CBRC014 (line from a melanoma biopsy)
[8] = system: CBRC016 (line from a melanoma biopsy)
[9] = system: CBRC017 (line from a melanoma biopsy)
[10] = system: CBRC034 (line from a melanoma biopsy)
[11] = system: COLO792
[12] = system: COLO800
[13] = system: COLO829
[14] = system: G361
[15] = system: IPC-298
[16] = system: IST-MEL1
[17] = system: LB2518-MEL
[18] = system: LOXIMVI
[19] = system: MEL-HO

Compound	cleaved PARP positive nuclei fraction [1] [%]	cleaved PARP positive nuclei fraction [2] [%]	cleaved PARP positive nuclei fraction [3] [%]	cleaved PARP positive nuclei fraction [4] [%]	cleaved PARP positive nuclei fraction [5] [%]	cleaved PARP positive nuclei fraction [6] [%]	cleaved PARP positive nuclei fraction [7] [%]	cleaved PARP positive nuclei fraction [8] [%]	cleaved PARP positive nuclei fraction [9] [%]	cleaved PARP positive nuclei fraction [10] [%]	cleaved PARP positive nuclei fraction [11] [%]	cleaved PARP positive nuclei fraction [12] [%]	cleaved PARP positive nuclei fraction [13] [%]	cleaved PARP positive nuclei fraction [14] [%]	cleaved PARP positive nuclei fraction [15] [%]	cleaved PARP positive nuclei fraction [16] [%]	cleaved PARP positive nuclei fraction [17] [%]	cleaved PARP positive nuclei fraction [18] [%]	cleaved PARP positive nuclei fraction [19] [%]
Cc1cn(-c2cc(NC(=O)c3ccc(C)c(Nc4nccc(-c5cccnc5)n4)c3)cc(C(F)(F)F)c2)cn1 [nilotinib] + Nc1ncn([C@H]2C[C@H](O)[C@@H](CO)O2)c(=O)n1 [decitabine] (first compound 0.2 µM, partner dose 0.1 µM)	94	105	153	138	156	35.5	99.7	75.8	119	62.6	83.5	112	151	71.1	51.8	157	120	136	130
Cc1cc(Nc2cc(N3CCN(C)CC3)nc(Sc3ccc(NC(=O)C4CC4)cc3)n2)n[nH]1 [Tozasertib] + Nc1cccc2c1CN(C1CCC(=O)NC1=O)C2=O [lenalidomide] (first compound 0.006 µM, partner dose 1 µM)	122	93.3	243	126	89.6	206	93.3	89	157	113	68.6	144	158	123	43.1	123	320	126	60.8
O=C(Nc1cc(C(F)(F)F)cc(C(F)(F)F)c1)c1cc(Cl)ccc1O + CC(=O)c1c(C)c2cnc(Nc3ccc(N4CCNCC4)cn3)nc2n(C2CCCC2)c1=O [palbociclib] (first compound 0.016 µM, partner dose 0.04 µM)	389	475	46.9	99.1	130	93.5	142	162	97.2	274	166	88.7	96.2	112	128	70.1	229	274	45.5
O=c1[nH]nc(Sc2ncc([N+](=O)[O-])s2)n1-c1ccc2c(c1)OCCO2 + CNC(=O)c1cc(Oc2ccc(NC(=O)Nc3ccc(Cl)c(C(F)(F)F)c3)cc2)ccn1 [sorafenib] (first compound 0.2 µM, partner dose 0.4 µM)	93.9	48.3	70.9	98.8	74.4	158	78.4	30.6	78.1	58.2	89.9	29.5	60.5	78.2	46.1	122	102	93	58.9
COc1cc([C@@H]2c3cc4c(cc3[C@@H](O[C@@H]3O[C@@H]5CO[C@@H](C)O[C@H]5[C@H](O)[C@H]3O)[C@H]3COC(=O)[C@H]23)OCO4)cc(OC)c1O [etoposide] + Cn1c(=O)n(-c2ccc(C(C)(C)C#N)cc2)c2c3cc(-c4cnc5ccccc5c4)ccc3ncc21 [NVP-BEZ235] (first compound 0.02 µM, partner dose 0.004 µM)	52.6	200	133	129	234	88.9	84.7	115	139	38.1	127	23.1	86.1	187	148	269	137	167	121
CC[C@]1(O)C[C@H]2CN(CCc3c([nH]c4ccccc34)[C@@](C(=O)OC)(c3cc4c(cc3OC)N(C=O)[C@H]3[C@@](O)(C(=O)OC)[C@H](OC(C)=O)[C@]5(CC)C=CCN6CC[C@]43[C@@H]65)C2)C1 [vincristine] + Cc1cc(Nc2cc(N3CCN(C)CC3)nc(/C=C/c3ccccc3)n2)n[nH]1 [ENMD2076] (first compound 0.0001 µM, partner dose 0.04 µM)	85.9	216	1320	223	97.9	159	111	139	111	50.3	185	58.1	203	104	169	66.4	90	64.4	121
O=c1[nH]nc(Sc2ncc([N+](=O)[O-])s2)n1-c1ccc2c(c1)OCCO2 + CCCS(=O)(=O)Nc1ccc(F)c(C(=O)c2c[nH]c3ncc(Cl)cc23)c1F [PLX4720] (first compound 0.2 µM, partner dose 0.08 µM)	117	102	79.8	40	105	154	118	121	101	30.2	104	38.6	76.4	191	43.7	128	104	39.8	67.3
Cc1ccc(Nc2nccc(N(C)c3ccc4c(C)n(C)nc4c3)n2)cc1S(N)(=O)=O [Pazopanib] + C[C@]1(c2nc3c(C(N)=O)cccc3[nH]2)CCCN1 [Veliparib] (first compound 0.4 µM, partner dose 1.4 µM)	97.9	105	150	159	83.3	105	226	164	123	81.8	58.2	78.1	95.3	277	54.3	66.5	120	86.7	79.2
